# Results from the supplement of paper PMC8728848.
# Some of the results follow.
# B1: SabA (Helicobacter pylori) (protein)
# chain: MGSSHHHHHHSSGLVPRGSHMENLYFQGEDNGFFVSAGYQIGEAVQMVKNTGELKNLNEKYEQLSQYLNQVASLKQSIQNANNIELVNSSLNYLKSFTNNNYNSTTQSPIFNAVQAVITSVLGFWSLYAGNYFTFFVGKKVGDSGQPASVQGNPPFKTIIENCSGIENCAMDQTTYDKMKKLAEDLQAAQTNSATKGNNLCALSGCAATDSTSNPPNSTVSNALNLAQQLMDLIANTKTAMMWKNIVISGVSNTSGAITSTNYPTQYAVFNNIKAMIPILQQAVTLSQSNHTLSASLQAQATGSQTNPKFAKDIYTFAQNQKQVISYAQDIFNLFNSIPAEQYKYLEKAYLKIPNAGSTPTNPYRQVVNLNQEVQTIKNNVSYYGNRVDAALSVARDVYNLKSNQAEIVTAYNDAKTLSEEISKLPHNQVNTKDIVTLPYDKNAPAAGQSNYQINPEQQSNLNQALAAMSNNPFKKVGMISSQNNNGA
# Tests used:
# Assay in all cases: glycan array binding signal (z-score within array); higher = stronger binding
# Conditions in all cases: glycan notation: IUPAC condensed, linker removed
# [1] = target: Neu5Ac(a2-6)GlcNAc(b1-4)GlcNAc(b1-4)GlcNAc
# How it was run: (§1)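 Columns mapping to the same glycan were averaged after glycan names were converted to IUPAC-condensed notation. The data come from 3228 arrays in the Consortium for Functional Glycomics database, limited to those with an available protein sequence. Binding is reported as a within-array Z-score averaged across arrays of one protein sequence and across linkers.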
# Neu5Ac(a2-8)Neu5Ac = target: Neu5Ac(a2-8)Neu5Ac
# How it was run: as §1
# [2] = target: Neu5Ac(a2-8)Neu5Ac(a2-3)Gal(b1-3)GalNAc(b1-4)[Neu5Ac(a2-3)]Gal(b1-4)Glc
# How it was run: as §1
# [3] = target: Neu5Ac(a2-8)Neu5Ac(a2-3)Gal(b1-3)GalNAc(b1-4)[Neu5Ac(a2-8)Neu5Ac(a2-3)]Gal(b1-4)Glc
# How it was run: as §1
# [4] = target: Neu5Ac(a2-8)Neu5Ac(a2-3)Gal(b1-4)Glc
# How it was run: as §1
# [5] = target: Neu5Ac(a2-8)Neu5Ac(a2-3)Gal(b1-4)GlcNAc
# How it was run: as §1
# [6] = target: Neu5Ac(a2-8)Neu5Ac(a2-3)[Gal(b1-3)GalNAc(b1-4)]Gal(b1-4)Glc
# How it was run: as §1
# [7] = target: Neu5Ac(a2-8)Neu5Ac(a2-3)[GalNAc(b1-4)]Gal(b1-4)Glc
# How it was run: as §1
# [8] = target: Neu5Ac(a2-8)Neu5Ac(a2-8)Neu5Ac
# How it was run: as §1
# [9] = target: Neu5Ac(a2-8)Neu5Ac(a2-8)Neu5Ac(a2-3)Gal(b1-4)Glc
# How it was run: as §1
# [10] = target: Neu5Ac(a2-8)Neu5Ac(a2-8)Neu5Ac(a2-3)[Gal(b1-3)GalNAc(b1-4)]Gal(b1-4)Glc
# How it was run: as §1
# [11] = target: Neu5Ac(a2-8)Neu5Ac(a2-8)Neu5Ac(a2-3)[GalNAc(b1-4)]Gal(b1-4)Glc
# How it was run: as §1
# [12] = target: Neu5Ac(a2-8)Neu5Ac(a2-8)Neu5Ac(a2-8)Neu5Ac(a2-3)[GalNAc(b1-4)]Gal(b1-4)Glc
# How it was run: as §1
# [13] = target: Neu5Ac(a2-8)Neu5Gc(a2-3)Gal(b1-4)GlcNAc
# How it was run: as §1
# [14] = target: Neu5Ac(b2-6)Gal(b1-4)GlcNAc
# How it was run: as §1
# Neu5Ac(b2-6)GalNAc = target: Neu5Ac(b2-6)GalNAc
# How it was run: as §1
# [15] = target: Neu5Ac9Ac(a2-3)Gal(b1-3)GlcNAc
# How it was run: as §1
# [16] = target: Neu5Ac9Ac(a2-3)Gal(b1-4)GlcNAc
# How it was run: as §1
# [17] = target: Neu5Ac9Ac(a2-6)Gal(b1-4)GlcNAc
# How it was run: as §1
# [18] = target: Neu5Gc(a2-3)Gal(b1-3)GlcNAc
# How it was run: as §1
# [19] = target: Neu5Gc(a2-3)Gal(b1-3)[Fuc(a1-4)]GlcNAc
# How it was run: as §1
# Neu5Gc(a2-3)Gal(b1-4)Glc = target: Neu5Gc(a2-3)Gal(b1-4)Glc
# How it was run: as §1
# [20] = target: Neu5Gc(a2-3)Gal(b1-4)GlcNAc
# How it was run: as §1
# [21] = target: Neu5Gc(a2-3)Gal(b1-4)GlcNAc(b1-3)Gal(b1-4)GlcNAc(b1-2)Man(a1-3)[Neu5Gc(a2-3)Gal(b1-4)GlcNAc(b1-3)Gal(b1-4)GlcNAc(b1-2)Man(a1-6)]Man(b1-4)GlcNAc(b1-4)GlcNAc
# How it was run: as §1
# [22] = target: Neu5Gc(a2-3)Gal(b1-4)[Fuc(a1-3)]GlcNAc
# How it was run: as §1
# [23] = target: Neu5Gc(a2-6)Gal(b1-4)GlcNAc
# How it was run: as §1
# Neu5Gc(a2-6)GalNAc = target: Neu5Gc(a2-6)GalNAc
# How it was run: as §1
# [24] = target: Neu5Gc(a2-8)Neu5Ac(a2-3)Gal(b1-4)GlcNAc
# How it was run: as §1
# [25] = target: Neu5Gc(a2-8)Neu5Gc(a2-3)Gal(b1-4)GlcNAc
# How it was run: as §1
# [26] = target: Neu5Gc(a2-8)Neu5Gc(a2-3)Gal(b1-4)GlcNAc(b1-3)Gal(b1-4)GlcNAc
# How it was run: as §1
# [27] = target: Neu5Gc(a2-8)Neu5Gc(a2-6)Gal(b1-4)GlcNAc
# How it was run: as §1
# [28] = target: Neu5Gc(b2-6)Gal(b1-4)GlcNAc
# How it was run: as §1
binder,measurement,setting,value
B1,glycan array binding signal (z-score),[1],-0.565
same,glycan array binding signal (z-score),Neu5Ac(a2-8)Neu5Ac,-0.263
same,glycan array binding signal (z-score),[2],-0.646
same,glycan array binding signal (z-score),[3],1.52
same,glycan array binding signal (z-score),[4],-0.812
same,glycan array binding signal (z-score),[5],-0.714
same,glycan array binding signal (z-score),[6],-0.068
same,glycan array binding signal (z-score),[7],-0.392
same,glycan array binding signal (z-score),[8],-0.39
same,glycan array binding signal (z-score),[9],-1
same,glycan array binding signal (z-score),[10],-0.628
same,glycan array binding signal (z-score),[11],-0.808
same,glycan array binding signal (z-score),[12],-0.747
same,glycan array binding signal (z-score),[13],-0.097
same,glycan array binding signal (z-score),[14],-0.3
same,glycan array binding signal (z-score),Neu5Ac(b2-6)GalNAc,0.916
same,glycan array binding signal (z-score),[15],-0.627
same,glycan array binding signal (z-score),[16],0.184
same,glycan array binding signal (z-score),[17],-0.019
same,glycan array binding signal (z-score),[18],0.006
same,glycan array binding signal (z-score),[19],-0.056
same,glycan array binding signal (z-score),Neu5Gc(a2-3)Gal(b1-4)Glc,0.049
same,glycan array binding signal (z-score),[20],-0.614
same,glycan array binding signal (z-score),[21],-0.015
same,glycan array binding signal (z-score),[22],-0.121
same,glycan array binding signal (z-score),[23],0.779
same,glycan array binding signal (z-score),Neu5Gc(a2-6)GalNAc,0.191
same,glycan array binding signal (z-score),[24],-0.363
same,glycan array binding signal (z-score),[25],-0.611
same,glycan array binding signal (z-score),[26],-1.11
same,glycan array binding signal (z-score),[27],0.027
same,glycan array binding signal (z-score),[28],0.151

# Exported tab-delimited: part of the list above.
binder	measurement	setting	value
B1	glycan array binding signal (z-score)	[9]	-1
same	glycan array binding signal (z-score)	[12]	-0.747
